We go through 28 molecules from PubChem BioAssay AID330 (DTP/NCI, 2004).

This assay relates to P388 leukemia ip, CD2F1 mice, survival T/C. As to the kind of experiment: NCI In Vivo Anticancer Drug Screen. Data for tumor model P388 Leukemia (intraperitoneal) in CD2F1 (CDF1) mice. As to conditions: T/C endpoint: median survival time, higher T/C = longer survival.
Setting [1] is: dose: 120.0 mg/kg/injection, schedule: Q01DX005 (ip), vehicle: saline.
The mark [2] stands for this setting: dose: 240.0 mg/kg/injection, schedule: Q01DX005 (ip), vehicle: saline.
Setting [3] is: dose: 100.0 mg/kg/injection, schedule: Q01DX009 (ip), vehicle: saline.
[4] abbreviates: dose: 50.0 mg/kg/injection, schedule: Q01DX005 (ip), vehicle: Klucel (hydroxypropylcellulose) (HPC).
[5] abbreviates: dose: 100.0 mg/kg/injection, schedule: Q01DX005 (ip), vehicle: Klucel (hydroxypropylcellulose) (HPC).
The mark [6] stands for this setting: dose: 200.0 mg/kg/injection, schedule: Q01DX005 (ip), vehicle: Klucel (hydroxypropylcellulose) (HPC).
The mark [7] stands for this setting: dose: 50.0 mg/kg/injection, schedule: Q01DX009 (ip), vehicle: saline.
The mark [8] stands for this setting: dose: 200.0 mg/kg/injection, schedule: Q01DX009 (ip), vehicle: saline.
The mark [9] stands for this setting: dose: 120.0 mg/kg/injection, schedule: Q01DX005 (ip), vehicle: saline with Tween-80.
The mark [10] stands for this setting: dose: 240.0 mg/kg/injection, schedule: Q01DX005 (ip), vehicle: saline with Tween-80.
Where [11] appears, read: dose: 200.0 mg/kg/injection, schedule: Q01DX009 (ip), vehicle: Klucel (hydroxypropylcellulose) (HPC).
Where [12] appears, read: dose: 50.0 mg/kg/injection, schedule: Q01DX009 (ip), vehicle: saline with Tween-80.
[13] abbreviates: dose: 100.0 mg/kg/injection, schedule: Q01DX009 (ip), vehicle: saline with Tween-80.
Where [14] appears, read: dose: 400.0 mg/kg/injection, schedule: Q01DX009 (ip), vehicle: saline with Tween-80.

The list shows only some results of the screen, not a fair sample: it gathers tests that were run many times, whatever their T/C, doses with no T/C, and many T/C values between a quarter and a half above the control. Further doses and runs are listed elsewhere. T/C gives the treated animals as a percentage of the vehicle group. Some entries give survivors of the animals treated and no T/C: the source files T/C as zero there, which appears to mark a toxic dose or a test without result, not a measured value. Some doses without a T/C left all or most animals alive at the check, yet need not have been tolerated: the source hardly ever lists a survival T/C far under the control, and the zero likely stands for such cases as well. Counts of survivors are from the toxicity check (mostly the fifth day) where no day follows; animals may have died later. Schedule codes are those of the source, read here as Q, the interval in days (D) or hours (H), X, the number of doses. Some doses were run more than once; their values stand side by side, smallest first. Where survival is the endpoint, the PubChem record calls one and a half times the control and up active, and a quarter to a half above the control has no call in these data; cut-offs in other NCI protocols can differ. Some T/C values carry the count of animals alive at the toxicity check (mostly the fifth day); without a count, all were alive then.

As for `COc1ccc(C(=O)C(CN2CCCC2)CN2CCCC2)cc1`, the T/C (dose: 30.0 mg/kg/injection, schedule: Q01DX005 (ip), vehicle: saline) was 128 % of control and the T/C (dose: 30.0 mg/kg/injection, schedule: Q01DX009 (ip), vehicle: saline) is 132 % of control. The survivor count runs as follows: (dose: 60.0 mg/kg/injection, schedule: Q01DX005 (ip), vehicle: saline) 3 of 6; under setting [1], 0 of 6; under setting [2], 0 of 6.

Regarding `C[N+]1(CCC(=O)c2ccccc2)CCOCC1`, the survivor count under setting [3] is 6 of 6.

Take `C=C1C(=O)OC2C3OC(C)(CCC(O)C3COC(C)=O)CC(OC(=O)/C(=C/C)COC(C)=O)C12` (stereo not drawn): the survivor count by setting is: (dose: 3.0 mg/kg/injection, schedule: Q01DX009 (ip), vehicle: suspension in saline) 6 of 6; (dose: 6.0 mg/kg/injection, schedule: Q01DX009 (ip), vehicle: suspension in saline) 5 of 6; (dose: 6.25 mg/kg/injection, schedule: Q01DX009 (ip), vehicle: Klucel (hydroxypropylcellulose) (HPC)) 1 of 6; (dose: 12.0 mg/kg/injection, schedule: Q01DX009 (ip), vehicle: suspension in saline) 1 of 6; (dose: 12.5 mg/kg/injection, schedule: Q01DX009 (ip), vehicle: Klucel (hydroxypropylcellulose) (HPC)) 4 of 6; (dose: 24.0 mg/kg/injection, schedule: Q01DX009 (ip), vehicle: suspension in saline) 0 of 6. The survivor count (dose: 25.0 mg/kg/injection, schedule: Q01DX009 (ip), vehicle: Klucel (hydroxypropylcellulose) (HPC)) is given as 0 of 6.

On to `C=C(C)C12CC(C)C34OC5(CCCCCCCC(C)C6C(C)C(OC(=O)c7ccccc7)C(O)(C(O)C7(CO)OC7C3C1O5)C64)O2` (stereo not drawn), for which the T/C by setting is: (dose: 20.0 micrograms/kg/injection, schedule: Q01DX009 (ip), vehicle: saline + alcohol) 132 % of control; (dose: 40.0 micrograms/kg/injection, schedule: Q01DX009 (ip), vehicle: saline + alcohol) 133 % of control. Besides, for the setting “dose: 80.0 micrograms/kg/injection, schedule: Q01DX009 (ip), vehicle: saline + alcohol”, the survivor count is 6 of 6.

Consider `Cc1nccc2cccc(CNC(C)C)c12`, for which the survivor count (dose: 400.0 mg/kg/injection, schedule: Q01DX001 (ip), vehicle: saline) was 0 of 6.

For `C/C(=N\NC(=S)N1CCC(C)CC1)c1nccnc1C`, the survivor count under setting [4] was 2 of 6, the survivor count under setting [5] is listed as 0 of 6 and the survivor count under setting [6] was 0 of 6.

For `CCOC(=O)CNC(=O)NNC(=O)OCC`, the survivor count (dose: 25.0 mg/kg/injection, schedule: Q01DX009 (ip), vehicle: saline) is listed as 6 of 6.

As for `CCCCCCCCCCCCCCCCCCOC(=O)C(N)CCCCN` (stereo not drawn), the survivor count is, setting by setting: under setting [1], 2 of 6; under setting [2], 0 of 6.

Consider `ON=C1C2C=CC=CC1C=C2`, for which the survivor count by setting is: under setting [7], 5 of 6; under setting [3], 1 of 6; under setting [8], 0 of 6.

For the molecule `OC(CI)C(O)C(O)C(O)CI` (stereo not drawn), the T/C (dose: 300.0 mg/kg/injection, schedule: Q01DX009 (ip), vehicle: saline with Tween-80) was 140 % of control.

`CC(C)=CCCC(C)(OC1OC(COC2OCC(O)C(O)C2O)C(O)C(O)C1O)C1CCC2(C)C1C(O)CC1C3(C)CCC(OC4OC(CO)C(O)C(O)C4OC4OC(CO)C(O)C(O)C4O)C(C)(C)C3CCC12C` (stereo not drawn): the survivor count (dose: 300.0 mg/kg/injection, schedule: Q01DX009 (ip), vehicle: Klucel (hydroxypropylcellulose) (HPC)) is 0 of 6.

With `Cc1cc(C)c(S(=O)(=O)Sc2nnnn2C)c(C)c1`, under “dose: 100.0 mg/kg/injection, schedule: Q01DX009 (ip), vehicle: Klucel (hydroxypropylcellulose) (HPC)”, the survivor count is listed as 3 of 6.

On to `OC1OCC(COc2ccc(Cl)cc2)OC1O` (stereo not drawn), for which the T/C is, setting by setting: under setting [9], 129 % of control; under setting [10], 126 % of control. The survivor count (dose: 480.0 mg/kg/injection, schedule: Q01DX005 (ip), vehicle: saline with Tween-80) is 2 of 6.

For the molecule `COc1nc(N)c([N+](=O)[O-])c(C(Br)Br)n1`, the survivor count is 1 of 6 under setting [4], 0 of 6 under setting [5] and 0 of 6 under setting [6].

Turning to `O=C(OC1CCCc2ccccc21)c1ccc(N=Nc2ccccc2)cc1` (stereo not drawn), the survivor count under setting [10] is on record as 6 of 6.

Consider `C[n+]1cccc(/C=N/O)c1`, for which the survivor count (dose: 400.0 mg/kg/injection, schedule: Q04DX002 (ip), vehicle: saline) is recorded as 3 of 6.

For `CNC(=O)Oc1ccc[nH]c1=O`, the T/C reads like this: (dose: 64.0 mg/kg/injection, schedule: Q01DX009 (ip), vehicle: saline with Tween-80) 131 % of control; under setting [3], 125 and 127 % of control; (dose: 128.0 mg/kg/injection, schedule: Q01DX009 (ip), vehicle: saline with Tween-80) 140 % of control; under setting [8], 128 and 134 % of control; (dose: 256.0 mg/kg/injection, schedule: Q01DX009 (ip), vehicle: saline with Tween-80) 131 and 142 % of control; (dose: 400.0 mg/kg/injection, schedule: Q01DX009 (ip), vehicle: saline) 136 % of control [4 of 6 alive]. For the same molecule, the T/C (dose: 400.0 mg/kg/injection, schedule: Q01DX009 (sc), vehicle: saline) was 145 % of control [5 of 6 alive]. For the same molecule, the survivor count was 0 of 6 and 1 of 6 (dose: 512.0 mg/kg/injection, schedule: Q01DX009 (ip), vehicle: saline with Tween-80); 0 of 6 (dose: 600.0 mg/kg/injection, schedule: Q01DX009 (ip), vehicle: saline).

On to `CN(C)CC(CN(C)C)C(=O)c1ccc(O)cc1`, for which the survivor count by setting is: (dose: 50.0 mg/kg/injection, schedule: Q01DX005 (ip), vehicle: saline) 0 of 5; (dose: 100.0 mg/kg/injection, schedule: Q01DX005 (ip), vehicle: saline) 0 of 5; (dose: 200.0 mg/kg/injection, schedule: Q01DX005 (ip), vehicle: saline) 0 of 5.

As for `NOCCCCCON`, the survivor count under setting [11] is 2 of 5.

On to `c1ccc2c(c1)NC(NC1Nc3ccccc3N1)N2`, for which the survivor count is reported as 6 of 6 under setting [9] and 2 of 6 under setting [10].

With `CC(C)N=C(Cc1ccccc1)NC(C)(C)C`, the survivor count is 0 of 6 under setting [7], 0 of 6 under setting [3] and 0 of 6 under setting [8].

As to `COC(=O)C1=CCC[C@H]2C1(C)CCC(C)C21CC(c2ccoc2)OC1=O` (stereo partly drawn), the survivor count under setting [5] is 3 of 4.

As to `CN=S(=O)(OCCCCCOS(=O)(=NC)c1ccccc1)c1ccccc1` (stereo not drawn), the T/C under setting [12] is 132 % of control; the T/C under setting [13] is 140 [5 of 6 alive] and 141 % of control. Moreover, the survivor count was 6 of 6 under setting [12]; 5 of 6 under setting [13]; 0 of 6 (dose: 200.0 mg/kg/injection, schedule: Q01DX009 (ip), vehicle: saline with Tween-80); 0 of 6 under setting [14].

`O=C1C(CO)=C[C@H](O)[C@@]2(CO)O[C@@H]12`: under “dose: 200.0 mg/kg/injection, schedule: Q04DX002 (ip), vehicle: saline”, the survivor count was 0 of 6.

Regarding `CN(C)P1(=O)OCC(C(C)(C)C)CN1C` (stereo not drawn), under setting [11], the survivor count was 0 of 6.

With `CCCCC(NC(C)=O)C(=O)O` (stereo not drawn), the survivor count under setting [14] is 5 of 6.

Take `Oc1c(Cl)cc(Cl)cc1CN1CCCCC1`: the survivor count (dose: 400.0 mg/kg/injection, schedule: Q01DX009 (ip), vehicle: suspension in saline) is 5 of 6.

For `CSC(=S)N/N=C(\C)Cc1ccccn1`, the survivor count runs as follows: (dose: 100.0 mg/kg/injection, schedule: Q01DX005 (ip), vehicle: saline with Tween-80) 0 of 6; (dose: 200.0 mg/kg/injection, schedule: Q01DX005 (ip), vehicle: saline with Tween-80) 0 of 6.
